Results as given in paper PMC12040169 (PLOS Biology, 2025).
Some of the results follow.

Test system: T1, CTL2-GFP (C. trachomatis L2/434/Bu, GFP-expressing)
T1 construct: L2/434/Bu, GFP-expressing
Parameters: species or system HeLa; Intracellular C. trachomatis growth in HeLa cells, bulk GFP fluorescence relative to DMSO
Conditions: bulk GFP, single well; 28.5 h, 10 µM; inhibitor

SMILES | % of control remaining
OCc1ccc(-c2cncc(-c3ccc(O)cc3)n2)cc1 [CBK123792] | 143.591%
CCCOc1ccc(CCNc2ncnc(N)n2)cc1 [CBK262744] | 89.9856%
O=C(O)c1ccc2[nH]c3c(c2c1)CCCC3 [CBK001252] | 115.439%
Cc1ccc(OCC(=O)NNC(=O)c2ccco2)cc1 [CBK261800] | 116.35%
O=C(O)CCN/C(=N\S(=O)(=O)c1ccccc1)c1ccccc1 [CBK266111] | 162.602%
CC1CCN(Cn2nc(COc3ccccc3)n(-c3ccccc3)c2=S)CC1 [CBK264247] | 130.617%
O=C(Oc1cccc(-c2cnc3ccccc3n2)c1)c1ccc(S(=O)(=O)N2CCCCC2)cc1 [CBK267785] | 126.494%
O=C(Nc1cc(Oc2cccnc2)cc([N+](=O)[O-])c1)c1cc2nc(-c3ccco3)cc(C(F)(F)F)n2n1 [CBK262534] | 91.3818%
CCOC(=O)c1c(NC(=O)CSc2n[nH]c(N)n2)sc(C)c1C [CBK266412] | 110.323%
Cc1ccc(-n2nc(C(=O)O)c(C)c(C#N)c2=O)cc1C [CBK286987] | 139.407%
O=C(O)CSc1nnc(SCc2cccc3ccccc23)s1 [CBK266215] | 151.726%
C/C(=N/NC(=O)C[N+](C)(C)C)c1nn(-c2ccc(Cl)cc2)nc1C [CBK008258C] | 102.977%
Cc1nnc(-c2cccc(S(=O)(=O)Nc3nnc(C(F)(F)F)s3)c2)o1 [CBK062014] | 110.921%
O=C(NCc1cc[nH]n1)N1CCCN(Cc2cccs2)CC1 [CBK305645] | 120.287%
COc1ccccc1-c1cnc2[nH]c(=O)n(Cc3ccc(F)c(Cl)c3)c2n1 [CBK064662] | 121.902%
CCN(CC)CCN(C(=O)N1CCCC1)c1c(C)cccc1C [CBK023237C] | 117.823%
NS(=O)(=O)c1ccc(CCNC(=O)c2cccnc2)cc1 [CBK268158] | 118.041%
CCOc1cccc(-c2cn3ccnc3c(NCCc3ccccn3)n2)c1 [CBK066586] | 186.193%
O=C(C1=C(O)C(=O)N(CCCN2CCOCC2)C1c1ccccn1)c1ccc(Cl)cc1 (centres unmarked) [CBK266445] | 110.986%
CC(C)(C)NC(=O)CN1C(=O)N2CCCN=C2c2ccc(Cl)cc21 [CBK284391] | 117.622%
Cc1cc(NC(=O)CCc2c(C)nc(N3CCOCC3)[nH]c2=O)no1 [CBK305636] | 120.142%
N#Cc1cccc(CN2CCC(Cc3ccccc3)CC2)c1 [CBK126380] | 127.861%
COC(=O)c1ccccc1NC(=O)Nc1ccc(N2CCOCC2)c2nonc12 [CBK266830] | 224.411%
CC1CCN(S(=O)(=O)c2ccc(NC(=O)CCn3c(=O)oc4ccccc43)cc2)CC1 [CBK268040] | 129.278%
Cc1cc(NC(=O)c2cc(C)[nH]n2)c2ccccc2n1 [CBK116260] | 146.457%
CCOC(=O)Cn1nnc(-c2ccc(Cl)cc2)n1 [CBK069596] | 110.978%
CCN(CC)CCN1CCN(c2cncc(-c3cccc(N)c3)n2)CC1 [CBK065751] | 168.271%

SMILES | % of control remaining
O=C(O)c1ccc(S(=O)(=O)N(CC2CC=CCC2)CC2CCCO2)cc1 (centres unmarked) [CBK286685] | 125.324%
CC(=O)Nc1cccc(-c2cnc(N)c(NCc3cccnc3)n2)c1 [CBK063562] | 159.537%
O=C(NC(n1cnc2c(N3CCCCC3)ncnc21)C(Cl)(Cl)Cl)c1ccccc1 (centres unmarked) [CBK261038] | 62.7276%
COc1cc(CNn2cnnc2S)ccc1OCC(N)=O [CBK265877] | 100%
c1coc(-c2nccnc2NCCc2c[nH]c3ccccc23)c1 [CBK037316] | 154.613%
CC(=O)c1cccc(-n2c(CCC(=O)O)ccc2-c2ccc(Br)cc2)c1 [CBK131888] | 121.521%
O=c1[nH]nc2c(SC3CCCCC3)nccn12 [CBK288471] | 102.057%
CNC(=O)CN1CCN(c2cc(C#N)ccc2C(F)(F)F)CC1=O [CBK306441] | 134.069%
C1CN=C(SCCCCSC2=NCCCN2)NC1 [CBK278223B] | 119.023%
CC(C)n1c(CN2CCOCC2)nc2c1c(=O)n(C)c(=O)n2C [CBK306201] | 120.856%
Nc1nc(C2CC(N)C2)cc(N2CCC(Oc3ccccc3Cl)CC2)n1 (centres unmarked) [CBK307356] | 56.6571%
O=C(Nc1cccnc1)N1CCN(Cc2ccccc2)CC1 [CBK155663] | 114.806%
Cc1ccc(C2CCCN2C(=O)c2cccn(CC(=O)NC3CCCCC3)c2=O)cc1C (centres unmarked) [CBK286009] | 118.627%
CC(=O)Nc1ccc(S(=O)(=O)N2CCN(c3ccc([N+](=O)[O-])c(N4CCOCC4)c3)CC2)cc1 [CBK264764] | 111.069%
Cc1ccc(OCc2nnc(SCC(=O)c3ccc(Br)cc3)n2N)cc1 [CBK266482] | 147.521%
COc1ccc(C(C)C)cc1-c1cnc2cccnc2c1N [CBK081211] | 102.659%
CC(=O)Nc1ccc(S(=O)(=O)N2CCN(S(=O)(=O)N3CCCCCC3)CC2)cc1 [CBK268983] | 133.226%
Cc1ccc(O)c(NC(=S)NC(=O)COc2ccccc2)c1 [CBK264373] | 100%
Fc1ccccc1/C=N/Nc1nccnc1Cl [CBK261711] | 81.1531%
O=C(c1cccs1)N1CCC[C@H]1[C@H](O)c1nccs1 [CBK284285] | 101.977%
CC(C)(C)OC(=O)N1CCCN(c2ccc(S(=O)(=O)c3ccccc3)c([N+](=O)[O-])c2)CC1 [CBK138502] | 78.5405%
CCOc1cc(/C=C2\SC(=N)NC2=O)cc(Cl)c1O [CBK262955] | 100%
Cn1c(C(=O)O)ccc1S(=O)(=O)NCc1ccco1 [CBK113686] | 89.823%
CC(=O)N1C[C@@H](c2cccc(C)c2)[C@@H]2CN(Cc3cccnc3)CC[C@@H]21 [CBK283368] | 138.156%
COc1ccccc1CC(=O)Nc1ncccc1OCCCC#N [CBK304952] | 92.4936%
CC(=O)Oc1ccc(NC(=O)CC2Nc3cc(C)c(C)cc3NC2=O)cc1 (centres unmarked) [CBK263088] | 93.4629%
Cc1cnc(Nc2cccc(C3CCCN3C(=O)CCOc3ccccc3C)n2)s1 (centres unmarked) [CBK285972] | 101.174%

Part of the list above, as tab-separated lines.
SMILES	% of control remaining
CNC(=O)CN1CCN(c2cc(C#N)ccc2C(F)(F)F)CC1=O [CBK306441]	134.069%
C1CN=C(SCCCCSC2=NCCCN2)NC1 [CBK278223B]	119.023%
Cc1ccc(C2CCCN2C(=O)c2cccn(CC(=O)NC3CCCCC3)c2=O)cc1C (centres unmarked) [CBK286009]	118.627%

Additional compounds follow.

SMILES | % of control remaining
COc1ccc(CCC(=O)N2CCCC2c2ccc(Cc3ccccc3F)cn2)cc1 (centres unmarked) [CBK285992] | 99.5494%
COCCn1ccnc1C1CCN(C(=O)Cc2ccc(O)c(F)c2)CC1 [CBK306649] | 143.172%
CN(C)C(=O)c1cc(Br)cnc1NCCCn1ccnc1 [CBK076378] | 87.4802%
CCOc1nnc(CN(CCC(N)=O)c2ccc(F)cc2)s1 [CBK305536] | 132.832%
COc1ccc(S(=O)(=O)N2CCN(Cc3ccc4c(c3)OCO4)CC2)c(Cl)c1Cl [CBK074433] | 106.009%
CN1CCCC1CCOc1ncccc1OCc1ccccc1 (centres unmarked) [CBK036313] | 133.436%
CC(C)Cn1c(-c2ccc(F)cc2)cnc1SC(C)C(=O)NC(N)=O (centres unmarked) [CBK295635] | 124.589%
COc1ccc(C)cc1NC(=O)c1cnc2n(c1=O)CCS2 [CBK287383] | 124.209%
CC(Oc1ccccc1)C(=O)Nc1ccccc1NC(=O)c1ccco1 (centres unmarked) [CBK269636] | 129.853%
CCCN1CC(NS(=O)(=O)c2cc(-n3cccn3)ccc2OC)CC1=O (centres unmarked) [CBK307285] | 101.809%
CCn1nc(C)c(-c2cncn2CC(C)N2CCCCC2)c1C (centres unmarked) [CBK281808] | 130.06%
O=S(=O)(c1ccc(C(F)(F)F)cc1Cl)N1CCCN(Cc2cccc3c2OCO3)CC1 [CBK063067] | 116.898%
O=C1CC(c2ccccc2)c2c(c3ccccc3[nH]c2=O)O1 (centres unmarked) [CBK288237] | 95.7653%
CCCc1nnc(SCC(=O)Nc2cccc(C(F)(F)F)c2)n1N [CBK028004] | 102.217%
CN(C)c1ccc(-c2nccnc2NS(=O)(=O)c2ccccc2C(F)(F)F)cc1 [CBK050801] | 96.7077%
Cc1c(NC(=O)CSc2nncn2C)ccc2nsnc12 [CBK269418] | 80.4338%
Cc1cc(C)c2c(N)c(-c3ccncc3)sc2n1 [CBK288189] | 125.787%
CSc1ncc(Cl)c(C(=O)Nc2sc3c(c2C(=O)NCc2ccccc2)CCCC3)n1 [CBK268976] | 92.8655%
CC(NC(=O)C1C=CCN1S(C)(=O)=O)c1ccc2c(c1)CCC2 (centres unmarked) [CBK282667] | 115.24%
O=C(NCc1ccccc1)c1ccccc1NC(=O)C1CCCCC1C(=O)O (centres unmarked) [CBK269283] | 122.574%
CN(C)CCn1c(=O)[nH]c2ncc(-c3ccco3)nc21 [CBK064251] | 85.8256%
COc1cccc(C(=O)N2CCN(C(=O)Nc3ccc(C(F)(F)F)cc3)CC2)c1 [CBK154788] | 110.266%
CC(C)CCNC(=O)N(CCC#N)C1CCCCC1 [CBK156378] | 113.601%
O=C1C(=CNCCN2CCOCC2)C(=O)c2ccccc21 [CBK263008] | 66.7935%
O=C(COC(=O)c1cc(O)nc2ccccc12)c1ccc(Br)cc1 [CBK262125] | 109.19%
CN(C)C(=O)c1cccc(S(=O)(=O)NCC2CCCO2)c1 (centres unmarked) [CBK304867] | 97.1501%
